Measured values published in PubChem BioAssay AID2685 (National Center for Advancing Translational Sciences (NCATS), 2010).
This is one part of the list. These are further read-outs of the screen, such as a control signal, another cell line or another target. No call is given for them. Most of these compounds were active or inconclusive in the main read-out, so they are no random draw. Words in brackets tell the shape of the fitted curve; partial curves, single points and poor fits give uncertain potencies.

Assay: qHTS Assay for Lipid Storage Modulators in Drosophila S3 Cells;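 for cell number change: cells counted by Cell Tracker Red CMTPX staining in the red channel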
Conditions: BODIPY lipid droplet fluorescence, 18-24 h; for cell number change: measured here: cell count max response, cells fed with added oleic acid
Summary of the method: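 Laser-scanning cytometry quantifies lipid droplet accumulation (500–530 nm total intensity; droplet/cell object ratio) in oleic acid-fed (400 uM added) Drosophila S3 cells treated with a concentration series. 20 uM Triacsin C defined 100% inhibition.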

[1] = measured here: lipid fluorescence (Fed channel) AC50, cells fed with added oleic acid
[2] = measured here: cell number channel AC50, cells fed with added oleic acid

Row | SMILES | cell number change [%] | AC50 [1] | AC50 [2]
1 | O=C(CSc1cccc[n+]1[O-])c1ccc(Cl)cc1 | -1.14 | 6.51 µM [rising, single point] | 
2 | Cc1ccc(Cn2c(Sc3nnc(C)s3)nc3c2c(=O)[nH]c(=O)n3C)cc1 | 33.5 | 0.731 µM [rising, partial curve, poor fit] | 32.6 µM [rising, single point]
3 | Cc1c(C)c2ccc(OCC(=O)NCCCn3ccnc3)c(C)c2oc1=O | -6.37 | 6.51 µM [falling, partial curve, poor fit] | 
4 | Cn1nnnc1Sc1ncnc2scc(-c3ccc(Cl)cc3)c12 | 3.44 | 6.51 µM [rising, single point] | 
5 | COc1ccc(C(=O)N/N=C/c2ccc(OC)c(COc3c(F)c(F)cc(F)c3F)c2)cc1 | 3.47 | 23.1 µM [falling, single point] | 
6 | COc1ccc(-n2c(C)cc(C(=O)CSc3nnc(-c4cccs4)o3)c2C)cc1 | -31.1 | 0.164 µM [rising, full curve, poor fit] | 29.1 µM [falling, single point]
7 | CCn1c2ccccc2c2cc(N)ccc21 | -0.252 |  | 
8 | N#Cc1ccccc1CSc1nc(O)cc(=O)[nH]1 | -4.5 |  | 
9 | Cc1cnc(C(=O)OCC(=O)c2ccccc2)cn1 | -11 |  | 
10 | CC(C)C(=O)N(c1ccc(F)cc1)C1C=CS(=O)(=O)C1 (centres undefined) | -19.9 | 8.2 µM [falling, partial curve] | 
11 | Cc1nn(-c2ccccc2)c(Cl)c1/C=N/NC(=O)c1ccn[nH]1 | 3.3 | 0.116 µM [rising, single point] | 
12 | CCn1cc(CNC(=O)c2cccc([N+](=O)[O-])c2)cn1 | -66.7 | 29.1 µM [rising, single point] | 20.6 µM [falling, single point]
13 | Cc1ccc(C(=O)C2=C(O)C(=O)N(CCN3CCOCC3)C2c2ccccn2)o1 (centres undefined) | -6.61 |  | 
14 | O=C(O)CCSc1nnc(COc2ccc([N+](=O)[O-])cc2)n1-c1ccccc1 | -0.12 | 1.3 µM [falling, full curve] | 
15 | N=c1c2c3c(sc2ncn1Nc1ccccc1)CCC3 | 17.7 | 1.03 µM [rising, partial curve] | 
16 | N#C/C(=C(/O)CN1CCN(c2ccccc2F)CC1)c1nc(-c2ccc(Cl)cc2)cs1 | -36.8 |  | 29.1 µM [falling, single point]
17 | Cc1ccc(N=Cc2ccc(N(C)C)cc2)cc1 | 14.8 |  | 
18 | CC1CCCN(S(=O)(=O)c2ccc(S(=O)(=O)N3CCC4(CC3)OCCO4)cc2)C1 (centres undefined) | 14.4 | 0.0651 µM [falling, full curve, poor fit] | 
19 | CCOc1ncccc1C(=O)Nc1ccc2nc(C)sc2c1 | -1.25 | 1.16 µM [rising, single point] | 
20 | Cc1ccnc(NS(=O)(=O)c2ccc(NC(=O)c3cc(-c4ccc(Br)cc4)nc4ccccc34)cc2)n1 | -40.8 | 14.6 µM [falling, partial curve, poor fit] | 29.1 µM [falling, single point]
21 | O=S(=O)(NCc1cccs1)NCc1ccccc1F |  |  | 1.84 µM [falling, single point]

Single records, as listed above.
`CCn1c2ccccc2c2cc(N)ccc21` in the list: cell number change [%]: -0.252
`Cn1nnnc1Sc1ncnc2scc(-c3ccc(Cl)cc3)c12` in the list: cell number change [%]: 3.44; AC50 [1]: 6.51 µM [rising, single point]

Later entries.

Row | SMILES | cell number change [%] | AC50 [1] | AC50 [2]
22 | CC/C(O)=C1\C(=O)CC(c2ccccc2)CC1=NCCc1c(C)[nH]c2ccc(C)cc12 (centres undefined) | 33.1 |  | 2.59 µM [rising, partial curve]
23 | CCN(CC(=O)NC1CCS(=O)(=O)C1)C(=O)c1ccc(S(=O)(=O)N(CC)CC)cc1 (centres undefined) | 3.51 |  | 
24 | COc1ccc(COC(=O)C2=C(C)NC(=O)NC2c2ccccc2OC(C)C)cc1 (centres undefined) | -0.73 | 29.1 µM [falling, single point] | 
25 | CCOC(=O)c1ccc(N2C(=O)c3n[nH]c(-c4ccco4)c3C2c2ccc([N+](=O)[O-])cc2)cc1 (centres undefined) | -15.6 | 14.6 µM [falling, partial curve, poor fit] | 
26 | O=C(NCCCNC(=O)c1cnccn1)c1cccc(F)c1 | 5.26 | 5.62 µM [falling, single point] | 
27 | CN(C(=S)Nc1ccc(SC(F)F)cc1)C(c1ccccc1)c1ccccc1 | 51.1 |  | 
28 | COc1ccccc1-c1ccc(/C=C2/C=C(CC(C)C)OC2=O)o1 | -21.5 | 29.1 µM [falling, single point] | 
29 | CC(=O)NC1(C(F)(F)F)N=C2SCCN2C1=O (centres undefined) |  | 0.731 µM [falling, single point] | 0.58 µM [falling, single point]
30 | COc1ccc(C2CC3(O)NC(=O)C(C#N)(C3C)C2(C#N)C#N)cc1 (centres undefined) | 17.5 |  | 4.11 µM [rising, single point]
31 | COc1ccc(NC(=O)CCCC(=O)OCC(F)(F)C(F)F)cc1 | -35.6 | 5.8 µM [falling, partial curve] | 0.206 µM [falling, full curve, poor fit]
32 | COc1ccc(CCN(C)C2CCCN(S(=O)(=O)c3ccccc3)C2)cc1OC (centres undefined) | 18.1 |  | 
33 | CC(C)c1nc2sc3c(=O)[nH]c(=S)[nH]c3c2c2c1CCCC2 | 7.26 |  | 0.00651 µM [falling, full curve, poor fit]
34 | O=C(COc1ccc2c(-c3ccccc3)cc(=O)oc2c1)NCCN1CCOCC1 | 26 |  | 
35 | CC(Sc1nccn1C)C(=O)c1ccc(Br)cc1 (centres undefined) |  | 16.4 µM [falling, partial curve] | 
36 | Cc1ccc(S(=O)(=O)N2CCC(NC(=O)c3cccnc3)CC2)cc1Cl | -7.69 | 29.1 µM [falling, single point] | 
37 | O=C(Cc1ccccc1F)OCC(=O)N1CCc2ccccc21 | -14.6 |  | 6.51 µM [rising, partial curve, poor fit]
38 | CC(CNC(=O)CN1C(=O)C(=O)N(C2CCCC2)C1=O)c1ccccc1 (centres undefined) | 12.2 | 29.1 µM [rising, single point] | 
39 | Cc1ccccc1CSc1nnc(C)n1N | 10.2 |  | 
40 | COc1ccc(NCc2cc(=O)oc3cc(NC(C)=O)ccc23)cc1 | 24.1 | 7.31 µM [rising, partial curve] | 
41 | Cc1cccc2sc(N(CCCN(C)C)C(=O)c3ccc(C(=O)c4ccccc4)cc3)nc12 |  | 6.51 µM [rising, single point] | 
